This data set is described as follows: general procedure: Fmoc solid-phase peptide synthesis; Fmoc-Linker AM-PS resin, 1% cross-linked (Biosearch Technologies); PEG-PS resin with modified Rink linker; HBTU/DIEA. The note with it: whole synthesis.

The values that follow come from patent US20110046056A1 (priority 2007, published 2011).

Where a sequence shows no end group, the ends are not given.

On to PVLDEFREKLNEELEALKQKLK, for which the crude yield is on record as 80% and the isolated yield came to 20. %.
Take PVLDEFREKLNER5HLEAR5HKQKLK: where the note is “hydrocarbon staple”, the crude yield is 60% and the isolated yield was found to be 23%.
Turning to PVLDES7HREKLNES7HLEALKQKLK, the crude yield is recorded as 73% and the isolated yield was 22%.
